Measurements: PMC9420869
Results are given in words; binding and its absence hold for the method and conditions named. For part of these data: In cells and extracts the contact can be indirect. Some entries that bind do so weakly or less than the wild type.

Amino acid sequences for entries named in this document (tags omitted).
UniProt Q7Z434: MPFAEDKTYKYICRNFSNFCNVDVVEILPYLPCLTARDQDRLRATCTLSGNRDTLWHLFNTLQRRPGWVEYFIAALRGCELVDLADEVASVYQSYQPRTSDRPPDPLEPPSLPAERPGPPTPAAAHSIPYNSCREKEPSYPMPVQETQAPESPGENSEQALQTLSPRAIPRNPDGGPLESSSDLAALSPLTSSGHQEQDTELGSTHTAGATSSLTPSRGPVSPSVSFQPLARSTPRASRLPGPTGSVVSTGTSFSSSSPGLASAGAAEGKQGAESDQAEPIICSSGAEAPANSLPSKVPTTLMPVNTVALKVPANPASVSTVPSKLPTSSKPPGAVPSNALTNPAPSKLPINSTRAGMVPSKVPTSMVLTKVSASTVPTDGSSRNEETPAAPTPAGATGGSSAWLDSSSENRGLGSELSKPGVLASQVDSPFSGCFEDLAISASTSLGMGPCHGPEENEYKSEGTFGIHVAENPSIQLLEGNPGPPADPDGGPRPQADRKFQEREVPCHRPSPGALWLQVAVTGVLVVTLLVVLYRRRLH
UniProt P46379: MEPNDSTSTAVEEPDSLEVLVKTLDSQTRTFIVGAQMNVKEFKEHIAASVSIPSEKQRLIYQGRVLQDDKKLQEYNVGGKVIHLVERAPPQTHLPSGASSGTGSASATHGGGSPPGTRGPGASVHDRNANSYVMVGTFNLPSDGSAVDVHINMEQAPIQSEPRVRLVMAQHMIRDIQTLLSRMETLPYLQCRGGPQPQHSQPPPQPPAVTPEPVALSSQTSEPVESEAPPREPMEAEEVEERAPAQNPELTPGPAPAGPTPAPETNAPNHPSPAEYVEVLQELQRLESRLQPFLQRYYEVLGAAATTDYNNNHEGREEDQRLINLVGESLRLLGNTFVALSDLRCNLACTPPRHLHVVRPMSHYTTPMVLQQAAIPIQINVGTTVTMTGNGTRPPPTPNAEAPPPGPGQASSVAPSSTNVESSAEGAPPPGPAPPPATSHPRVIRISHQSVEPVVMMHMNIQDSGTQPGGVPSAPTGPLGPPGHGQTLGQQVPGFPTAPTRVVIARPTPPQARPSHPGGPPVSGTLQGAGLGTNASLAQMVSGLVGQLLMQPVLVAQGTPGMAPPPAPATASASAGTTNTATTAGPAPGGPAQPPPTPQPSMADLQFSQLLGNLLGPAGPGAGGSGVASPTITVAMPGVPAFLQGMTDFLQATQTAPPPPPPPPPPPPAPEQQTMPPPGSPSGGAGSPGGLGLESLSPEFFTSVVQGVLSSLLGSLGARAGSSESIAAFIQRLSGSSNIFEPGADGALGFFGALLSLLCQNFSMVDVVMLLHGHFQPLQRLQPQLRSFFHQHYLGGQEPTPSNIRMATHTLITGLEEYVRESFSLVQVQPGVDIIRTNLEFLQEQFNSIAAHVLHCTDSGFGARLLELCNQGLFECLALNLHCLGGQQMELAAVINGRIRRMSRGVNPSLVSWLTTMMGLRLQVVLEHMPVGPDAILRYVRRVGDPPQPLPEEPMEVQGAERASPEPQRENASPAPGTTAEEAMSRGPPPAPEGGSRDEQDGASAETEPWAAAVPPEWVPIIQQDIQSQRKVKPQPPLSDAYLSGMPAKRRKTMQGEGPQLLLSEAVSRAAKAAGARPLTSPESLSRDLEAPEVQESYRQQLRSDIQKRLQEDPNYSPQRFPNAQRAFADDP

Tests used:
[1] = molecular target: endogenous VISA (human cells) (human (endogenous in HEK 293 and HeLa)) (UniProt Q7Z434); test: co-IP; endogenous co-immunoprecipitation from HEK 293 cells infected with SeV (MOI = 1) for indicated times or left untreated
[2] = molecular target: VISA expressed from a mammalian expression plasmid (UniProt Q7Z434); test: co-IP; HEK 293 cells transfected with the indicated plasmids, infected with SeV (MOI = 1) for 12 h or left untreated; co-immunoprecipitation and Western blot
[3] = molecular target: T1, endogenous VISA (mouse cells) (mouse (endogenous in NIH3T3 and BMDMs)), Q8VCF0; test: SDD-AGE; semi-denaturing detergent agarose gel electrophoresis of native lysates (1% agarose, SDS, 4°C) and immunoblot for VISA; cells untreated or SeV (MOI = 1) for 8 h; vector or Flag-BAG6 (HEK 293), wild type or BAG6-deficient (NIH3T3, BMDMs); details: remark: other sources report otherwise
T1 chain: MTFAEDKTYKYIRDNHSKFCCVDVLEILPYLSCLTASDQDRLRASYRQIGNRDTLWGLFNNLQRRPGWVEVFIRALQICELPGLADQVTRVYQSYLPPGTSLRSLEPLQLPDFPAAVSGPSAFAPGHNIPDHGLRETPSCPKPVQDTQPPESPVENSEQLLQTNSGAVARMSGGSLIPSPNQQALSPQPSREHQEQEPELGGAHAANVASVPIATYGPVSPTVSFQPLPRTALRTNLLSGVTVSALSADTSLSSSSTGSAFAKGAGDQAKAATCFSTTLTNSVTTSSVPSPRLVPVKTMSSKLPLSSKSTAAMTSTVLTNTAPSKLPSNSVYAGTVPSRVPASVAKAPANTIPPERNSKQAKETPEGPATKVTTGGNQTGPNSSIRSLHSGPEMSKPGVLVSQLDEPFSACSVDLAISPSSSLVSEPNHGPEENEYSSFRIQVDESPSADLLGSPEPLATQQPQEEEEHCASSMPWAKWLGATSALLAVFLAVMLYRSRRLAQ

“endogenous BAG6 (from UniProt P46379 1-1132)” was tested, and the binding [1] was “binds”.

For “human BAG6 expressed from pRK5-Flag/HA/Myc-hBAG6 (from UniProt P46379 1-1132)”, the binding [2] was “binds”.

B1: endogenous VISA (mouse cells), Q8VCF0 1-503 (protein)
chain: MTFAEDKTYKYIRDNHSKFCCVDVLEILPYLSCLTASDQDRLRASYRQIGNRDTLWGLFNNLQRRPGWVEVFIRALQICELPGLADQVTRVYQSYLPPGTSLRSLEPLQLPDFPAAVSGPSAFAPGHNIPDHGLRETPSCPKPVQDTQPPESPVENSEQLLQTNSGAVARMSGGSLIPSPNQQALSPQPSREHQEQEPELGGAHAANVASVPIATYGPVSPTVSFQPLPRTALRTNLLSGVTVSALSADTSLSSSSTGSAFAKGAGDQAKAATCFSTTLTNSVTTSSVPSPRLVPVKTMSSKLPLSSKSTAAMTSTVLTNTAPSKLPSNSVYAGTVPSRVPASVAKAPANTIPPERNSKQAKETPEGPATKVTTGGNQTGPNSSIRSLHSGPEMSKPGVLVSQLDEPFSACSVDLAISPSSSLVSEPNHGPEENEYSSFRIQVDESPSADLLGSPEPLATQQPQEEEEHCASSMPWAKWLGATSALLAVFLAVMLYRSRRLAQ
For B1, the binding [3] was “binds”.
